Experimental data: paper PMC5732219
Substitutions are numbered along the chain they refer to. No constants are given. Whether binding was seen depends on the method and setting. In cells and extracts the contact can be indirect. Where a sequence is shown, tags or fusion partners need not be part of it.

How the values were obtained:
Test in all cases: co-IP; anti-FLAG immunoprecipitation from 0.5 mg lysate of HEK293 cells transfected 24 h with FLAG-RABEP2 constructs; immunocomplexes washed in lysis buffer with no additional NaCl; blot with anti-rab5
[1] = biological target: T1, FLAG-tagged human RABEP2 Ser200Ala/Ser204Ala (human) (UniProt Q9H5N1)
T1 sequence: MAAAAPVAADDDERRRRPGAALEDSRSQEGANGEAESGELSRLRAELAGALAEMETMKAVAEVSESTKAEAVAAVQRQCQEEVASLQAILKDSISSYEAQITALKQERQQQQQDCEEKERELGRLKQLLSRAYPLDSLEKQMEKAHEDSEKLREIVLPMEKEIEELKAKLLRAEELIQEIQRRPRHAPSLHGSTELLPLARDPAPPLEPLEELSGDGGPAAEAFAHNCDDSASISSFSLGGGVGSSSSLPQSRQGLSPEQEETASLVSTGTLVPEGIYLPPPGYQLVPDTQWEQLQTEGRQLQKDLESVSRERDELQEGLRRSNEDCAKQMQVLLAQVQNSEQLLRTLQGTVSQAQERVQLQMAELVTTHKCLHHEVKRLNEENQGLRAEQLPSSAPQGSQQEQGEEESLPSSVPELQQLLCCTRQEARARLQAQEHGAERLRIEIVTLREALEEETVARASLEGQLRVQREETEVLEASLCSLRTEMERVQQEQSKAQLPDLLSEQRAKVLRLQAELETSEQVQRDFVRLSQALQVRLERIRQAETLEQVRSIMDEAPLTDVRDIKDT

[2] = biological target: T2, FLAG-tagged wild-type human RABEP2 (Rab-GTPase binding effector protein 2) (human) (UniProt Q9H5N1)
T2 sequence: T1 sequence with A200S, A204S

[3] = biological target: T3, FLAG-tagged human RABEP2 Ser204Glu (human) (UniProt Q9H5N1)
T3 sequence: T1 sequence with A200S, A204E

Measured: binding

Rab5 (endogenous, HEK293 cells) (human (endogenous in HEK293))
no binding: all assays above
